Assay results published in patent publication US20240052325.
For part of these data: Negatives hold for the conditions tested.

By UniProt entry, the sequences of proteins in these tests, tags left out. Residues count along the entry.
UniProt P19821, 4-832 K505G/E507G: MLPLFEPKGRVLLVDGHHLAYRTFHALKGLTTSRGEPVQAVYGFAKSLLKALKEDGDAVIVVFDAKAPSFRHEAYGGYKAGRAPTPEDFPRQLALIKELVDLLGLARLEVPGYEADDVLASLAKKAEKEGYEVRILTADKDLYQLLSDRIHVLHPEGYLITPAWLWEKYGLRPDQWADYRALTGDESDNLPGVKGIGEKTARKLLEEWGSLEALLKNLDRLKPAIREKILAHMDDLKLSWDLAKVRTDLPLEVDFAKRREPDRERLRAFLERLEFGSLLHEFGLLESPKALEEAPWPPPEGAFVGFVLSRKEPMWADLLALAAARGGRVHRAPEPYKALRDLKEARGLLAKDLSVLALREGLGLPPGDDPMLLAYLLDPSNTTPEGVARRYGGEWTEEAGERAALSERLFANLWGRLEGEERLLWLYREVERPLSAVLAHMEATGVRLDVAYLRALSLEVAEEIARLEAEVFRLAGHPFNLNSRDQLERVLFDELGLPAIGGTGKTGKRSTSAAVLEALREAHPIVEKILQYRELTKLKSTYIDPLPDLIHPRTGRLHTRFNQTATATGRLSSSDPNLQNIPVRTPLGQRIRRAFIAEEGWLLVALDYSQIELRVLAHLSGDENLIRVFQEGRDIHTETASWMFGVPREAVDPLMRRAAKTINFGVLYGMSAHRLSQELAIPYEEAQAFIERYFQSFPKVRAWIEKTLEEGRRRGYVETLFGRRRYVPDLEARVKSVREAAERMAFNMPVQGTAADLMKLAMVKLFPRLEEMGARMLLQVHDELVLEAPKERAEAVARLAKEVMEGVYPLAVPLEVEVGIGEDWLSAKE
UniProt P19821, whole entry: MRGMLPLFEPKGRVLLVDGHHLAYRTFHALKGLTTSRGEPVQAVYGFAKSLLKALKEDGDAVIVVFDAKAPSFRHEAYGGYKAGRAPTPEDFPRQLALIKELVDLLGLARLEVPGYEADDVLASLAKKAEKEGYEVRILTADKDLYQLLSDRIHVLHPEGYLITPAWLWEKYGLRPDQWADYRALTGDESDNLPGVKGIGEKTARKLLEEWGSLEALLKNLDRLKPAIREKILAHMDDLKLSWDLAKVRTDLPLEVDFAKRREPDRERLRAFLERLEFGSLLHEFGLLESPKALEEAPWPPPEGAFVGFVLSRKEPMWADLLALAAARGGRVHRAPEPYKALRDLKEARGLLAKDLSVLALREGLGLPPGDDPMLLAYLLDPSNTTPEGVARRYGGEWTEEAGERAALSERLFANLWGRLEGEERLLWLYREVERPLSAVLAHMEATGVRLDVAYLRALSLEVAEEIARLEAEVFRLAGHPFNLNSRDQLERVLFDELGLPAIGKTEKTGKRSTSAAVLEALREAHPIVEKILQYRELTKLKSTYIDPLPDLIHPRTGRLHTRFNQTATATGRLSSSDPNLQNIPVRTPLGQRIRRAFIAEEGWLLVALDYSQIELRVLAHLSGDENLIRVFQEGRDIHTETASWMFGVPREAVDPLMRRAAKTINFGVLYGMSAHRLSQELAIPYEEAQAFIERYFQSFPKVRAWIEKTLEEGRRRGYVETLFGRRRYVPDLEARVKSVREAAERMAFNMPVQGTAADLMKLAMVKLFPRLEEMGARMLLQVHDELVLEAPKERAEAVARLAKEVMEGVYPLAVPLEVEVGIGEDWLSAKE

Columns and labels:
[1] = molecular target: Pfu DNA polymerase wild type (Pyrococcus furiosus) (UniProt P61875); experiment: activity assay; settings: primer extension; 30 C 1 h or 21 C 24 h; Pfu buffer, 1.5 mM MgCl2; purified recombinant protein; folded or branched DNA
[2] = tested on: InPfu (Pfu DNA polymerase with inserted PI-PfuI mini intein, unspliced) (Pyrococcus furiosus); experiment: activity assay; settings: primer extension; 30 C 1 h or 21 C 24 h; Pfu buffer pH 8.8, 1.5 mM MgCl2; purified recombinant protein; protein details: internal His6 in intein; folded or branched DNA
[3] = molecular target: Activated InPfu (Pfu after intein splicing at 80 C + partially spliced mixture) (Pyrococcus furiosus) (UniProt P61875); experiment: activity assay; settings: primer extension; pre-activated 80 C 5 min; Pfu buffer, 1.5 mM MgCl2; purified recombinant protein; folded or branched DNA
[4] = tested on: InTaq (Taq DNA polymerase with inserted PI-PfuI mini intein, unspliced) (Thermus aquaticus / Pyrococcus furiosus); experiment: activity assay; settings: primer extension; 30 C 1 h or 21 C 24 h; 1.5 mM MgCl2, 50 mM KCl, Tris pH 8.3; purified recombinant protein; protein details: internal His6 in intein; folded or branched DNA
[5] = molecular target: Activated InTaq (Taq after intein splicing, 80 C 5 min pre-activation + partially spliced mixture) (Thermus aquaticus) (UniProt P19821); experiment: activity assay; settings: primer extension; pre-activated 80 C 5 min; 30 C 1 h or 21 C 24 h; 1.5 mM MgCl2; purified recombinant protein; folded or branched DNA
[6] = molecular target: Taq DNA polymerase wild type (Thermus aquaticus) (UniProt P19821); experiment: activity assay; settings: primer extension; 30 C 1 h or 21 C 24 h; 1.5 mM MgCl2; purified recombinant protein; folded or branched DNA
[7] = molecular target: Pfu DNA polymerase wild type (Pyrococcus furiosus) (UniProt P61875); experiment: enzyme reaction in vitro; settings: 3'-5' exonuclease; 50 C 1 h; 1.5 mM MgCl2; purified recombinant protein; folded or branched DNA
[8] = tested on: InPfu (Pfu DNA polymerase with inserted PI-PfuI mini intein, unspliced) (Pyrococcus furiosus); experiment: enzyme reaction in vitro; settings: 3'-5' exonuclease; 50 C 1 h; Pfu buffer, 1.5 mM MgCl2; purified recombinant protein; protein details: internal His6 in intein; folded or branched DNA
[9] = molecular target: Activated InPfu (Pfu after intein splicing at 80 C + partially spliced mixture) (Pyrococcus furiosus) (UniProt P61875); experiment: enzyme reaction in vitro; settings: 3'-5' exonuclease; pre-activated 80 C 1 h; 50 C 1 h; 1.5 mM MgCl2; purified recombinant protein; folded or branched DNA

Sequence	activity on this sequence [1]	activity on this sequence [2]	activity on this sequence [3]	activity on this sequence [4]	activity on this sequence [5]	activity on this sequence [6]	activity on this sequence [7]	activity on this sequence [8]	activity on this sequence [9]
CGAACGATGTGAACCTAATAACGTCTCTCGCGGCCGATCTGCCGGCCGCGAGAGACGT [elongation hairpin substrate]	active	not active	active	not active	active	active			
TGTTCTCCTCTTCCGCTGCTCCCGCGATCTGCCGCGGGAGCAGCGGAAGAGGAGAACA [exonuclease hairpin substrate]							active	not active	active
